Source: PMC5268445
Results are given in words; binding and its absence hold for the method and conditions named. Binding seen in cells or lysates may run through a third protein. Some results given as binding are weak or reduced against the parent protein; the word gives no strength.

Amino acid sequences for entries named in this document (tags omitted).
UniProt P37238: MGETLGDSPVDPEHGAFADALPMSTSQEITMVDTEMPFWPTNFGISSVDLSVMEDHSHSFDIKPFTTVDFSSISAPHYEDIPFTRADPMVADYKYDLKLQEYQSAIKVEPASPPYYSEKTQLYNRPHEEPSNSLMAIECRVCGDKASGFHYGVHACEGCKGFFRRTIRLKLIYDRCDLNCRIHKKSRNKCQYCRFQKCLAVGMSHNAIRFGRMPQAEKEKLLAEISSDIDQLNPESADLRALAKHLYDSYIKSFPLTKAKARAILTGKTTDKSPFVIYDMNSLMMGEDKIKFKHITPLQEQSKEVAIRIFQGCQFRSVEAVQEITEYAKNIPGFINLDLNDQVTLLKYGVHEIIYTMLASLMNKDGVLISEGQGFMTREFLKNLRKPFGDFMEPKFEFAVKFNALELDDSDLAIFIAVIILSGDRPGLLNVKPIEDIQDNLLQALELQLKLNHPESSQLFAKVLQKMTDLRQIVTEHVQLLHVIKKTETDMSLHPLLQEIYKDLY

Legend:
[1] = target: peroxisome proliferator-activated receptor γ (mouse (endogenous in immortalized brown adipocytes and 3T3-L1 adipocytes)) (UniProt P37238); assay: co-IP; endogenous proteins, nuclear extracts of 3T3-L1 adipocytes on day 4 of differentiation; which protein was precipitated is not told
[2] = target: peroxisome proliferator-activated receptor γ (mouse (endogenous in immortalized brown adipocytes and 3T3-L1 adipocytes)) (UniProt P37238); assay: co-IP; endogenous proteins, nuclear extracts of immortalized brown adipocytes on day 4 of differentiation; which protein was precipitated is not told

B1: megakaryoblastic leukemia/myocardin-like 1 (protein, UniProt Q8K4J6 1-964)
chain: MTLLEPEMLMMAVQSVLQLKLQQRRTREELVSQGIMPPLKSPAAFHEQRRSLERARTEDYLKRKIRSRPERAELVRMHILEETSAEPSLQAKQLKLKRARLADDLNEKIAQRPGPMELVEKNILPVESSLKEAIIVGQVNYPKVADSSSFDEDSSDALSPEQPASHESQGSVPSPLESRVSDPLPSATSISPTQVLSQLPMAPDPGETLFLAEQPPLPPAPLLPPSLANGSIVPTAKPAPTLIKQSQPKSASEKSQRSKKAKELKPKVKKLKYHQYIPPDQKQDKGAPAMDSSYAKILQQQQLFLQLQILNQQQQQQQQQHYNYQAILPAPPKPSAETPGSSAPTPSRSLSTSSSPSSGTPGPSGLARQSSTALAAKPGALPANLDDMKVAELKQELKLRSLPVSGTKTELIERLRAYQDQVSPAPGAPKAPATTSVLSKAGEVVVAFPAALLSTGSALVTAGLAPAEMVVATVTSNGMVKFGSTGSTPPVSPTPSERSLLSTGDENSTPGDAFGEMVTSPLTQLTLQASPLQIVKEEGARAASCCLSPGARAELEGLDKDQMLQEKDKQIEELTRMLQQKQQLVELLRLQLEQQKRAQQPAPASSPVKRESGFSSCQLSCQPQGSAHAFGSGLVVPTTNHGDTQAPAPESPPVVVKQEAGPPEPDLAPSSQLLLGSQGTSFLKRVSPPTLVTDSTGTHLILTVTNKSADGPGLPAGSPQQPLSQPGSPAPGPPAQMDLEHPPQPPFATPTSLLKKEPPGYEETVTQQPKQQENGSSSQHMDDLFDILIQSGEISADFKEPPSLPGKEKSPPAAAAYGPPLTPQPSPLSELPQAAPPPGSPTLPGRLEDFLESSTGLPLLTSGHEGPEPLSLIDDLHSQMLSSSAILDHPPSPMDTSELHFAPEPSSGMGLDLAVGHLDSMDWLELSSGGPVLSLAPLSTAAPSLFSMDFLDGHDLQLHWDSCL
binding [1]: binds
binding [2]: binds
